Measured values published in PMC3731272.
Results are given in words; binding and its absence hold for the method and conditions named. In cells and extracts the contact can be indirect. Some binding calls cover weakened binding; strength is not graded here.

Chains of the proteins cited; added tags and fusions are not shown. Lines headed by an entry give the natural chain unless they say otherwise; changes in a name come on top.
UniProt Q13153: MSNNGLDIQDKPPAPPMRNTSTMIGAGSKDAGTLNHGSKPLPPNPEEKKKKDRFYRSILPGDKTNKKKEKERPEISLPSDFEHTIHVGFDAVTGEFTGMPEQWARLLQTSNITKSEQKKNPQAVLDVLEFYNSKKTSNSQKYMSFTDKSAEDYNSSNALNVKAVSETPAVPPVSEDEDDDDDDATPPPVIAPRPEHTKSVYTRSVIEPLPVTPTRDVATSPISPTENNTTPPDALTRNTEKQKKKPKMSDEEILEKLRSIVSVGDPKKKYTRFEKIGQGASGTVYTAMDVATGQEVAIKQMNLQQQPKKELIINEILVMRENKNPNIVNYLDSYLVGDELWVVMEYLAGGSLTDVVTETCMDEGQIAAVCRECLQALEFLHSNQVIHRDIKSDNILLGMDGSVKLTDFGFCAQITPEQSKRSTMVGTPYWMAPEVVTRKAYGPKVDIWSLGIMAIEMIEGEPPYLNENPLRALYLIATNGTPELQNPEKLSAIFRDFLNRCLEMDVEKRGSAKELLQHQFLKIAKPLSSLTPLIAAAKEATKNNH
UniProt P60953: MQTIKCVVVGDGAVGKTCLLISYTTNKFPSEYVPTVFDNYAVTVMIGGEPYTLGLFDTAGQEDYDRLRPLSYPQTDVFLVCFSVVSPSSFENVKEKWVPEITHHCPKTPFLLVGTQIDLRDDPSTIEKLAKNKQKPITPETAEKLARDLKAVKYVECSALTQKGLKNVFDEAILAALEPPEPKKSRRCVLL

Key:
[1] = biological target: GFP-PAK1 (WT) (UniProt Q13153); assay: co-IP; GFP-PAK1 (WT or S79A) coexpressed with Myc-Cdc42 in 293T cells; extracts immunoprecipitated with anti-GFP, blotted with anti-Myc; lysis buffer 50 mM HEPES pH 7.4, 150 mM NaCl, 1 mM EDTA, 10% glycerol, 1% Triton X100 with phosphatase inhibitors; antibodies overnight at 4°C
[2] = biological target: GST-Cdc42 (UniProt P60953); assay: pull-down; lysates of 293T cells expressing GFP-PAK1 WT or S79A incubated with GST-Cdc42 or GST-Rac1 bound to GST-beads; eluates blotted with anti-GFP; only the target purified

Myc-Cdc42 (from UniProt P60953 1-191) was tested. Which binding [1] did it give?
Its binding is “binds”.

How did the binding [2] turn out when “GFP-PAK1^S79A (from UniProt Q13153 1-545) (enzyme)” was run?
Its binding is “binds”.

“GFP-PAK1 (WT) (from UniProt Q13153 1-545) (enzyme)” was tested. Which binding [2] did it give?
The binding was “binds”.
